Drawing on paper PMC10509710, this text covers binding for 1 substance.

By UniProt entry, the sequences of proteins in these tests, tags left out.
UniProt P16671: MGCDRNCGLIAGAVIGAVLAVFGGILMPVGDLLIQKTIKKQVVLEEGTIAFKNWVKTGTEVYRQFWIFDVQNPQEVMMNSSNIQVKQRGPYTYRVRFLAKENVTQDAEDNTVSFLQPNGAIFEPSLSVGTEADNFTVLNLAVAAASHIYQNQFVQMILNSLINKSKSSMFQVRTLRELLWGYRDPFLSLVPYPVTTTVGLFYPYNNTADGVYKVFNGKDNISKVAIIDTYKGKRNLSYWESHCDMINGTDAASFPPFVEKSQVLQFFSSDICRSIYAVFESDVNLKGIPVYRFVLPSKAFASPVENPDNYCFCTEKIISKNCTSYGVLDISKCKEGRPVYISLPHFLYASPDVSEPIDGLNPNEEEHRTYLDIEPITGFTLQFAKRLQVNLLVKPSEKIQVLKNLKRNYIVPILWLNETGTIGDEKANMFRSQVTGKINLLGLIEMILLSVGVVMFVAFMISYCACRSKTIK

The experiment has as its target human full-length cluster of differentiation 36 (CD36), glycosylated (human) (UniProt P16671). Briefly: native gel or EMSA; nondenaturing perfluorooctanoic acid (PFO)-PAGE on 8% polyacrylamide gels of sonicated lysates of infected Sf9 cells (72 h), immunoblot against SR-B1 or CD36.

These are yes or no findings as the source states them, for the method shown. Some entries that bind do so weakly or less than the wild type.

In the case of “human full-length cluster of differentiation 36 (CD36), glycosylated (from UniProt P16671 1-472) (receptor)”, the binding result is given as “binds”.
